{"sequences": {"note": "Chains of the proteins cited; added tags and fusions are not shown. Lines headed by an entry give the natural chain unless they say otherwise; changes in a name come on top. Residues count along the entry.", "UniProt P07949, 658-1114 limits assumed": "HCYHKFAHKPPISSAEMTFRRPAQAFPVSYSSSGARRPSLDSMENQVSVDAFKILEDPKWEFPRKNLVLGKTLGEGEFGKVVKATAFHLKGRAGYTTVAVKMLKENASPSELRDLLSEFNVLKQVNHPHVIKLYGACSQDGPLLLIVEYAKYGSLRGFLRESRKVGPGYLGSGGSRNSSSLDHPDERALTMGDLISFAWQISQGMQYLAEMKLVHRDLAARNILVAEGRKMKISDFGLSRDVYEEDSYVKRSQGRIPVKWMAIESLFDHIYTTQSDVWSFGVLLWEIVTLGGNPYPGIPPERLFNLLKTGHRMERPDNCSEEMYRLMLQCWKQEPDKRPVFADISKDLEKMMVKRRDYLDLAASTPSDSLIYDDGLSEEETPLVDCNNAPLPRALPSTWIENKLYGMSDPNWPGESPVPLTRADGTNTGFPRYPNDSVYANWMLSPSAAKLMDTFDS", "UniProt P07949, 658-1114 G810R limits assumed": "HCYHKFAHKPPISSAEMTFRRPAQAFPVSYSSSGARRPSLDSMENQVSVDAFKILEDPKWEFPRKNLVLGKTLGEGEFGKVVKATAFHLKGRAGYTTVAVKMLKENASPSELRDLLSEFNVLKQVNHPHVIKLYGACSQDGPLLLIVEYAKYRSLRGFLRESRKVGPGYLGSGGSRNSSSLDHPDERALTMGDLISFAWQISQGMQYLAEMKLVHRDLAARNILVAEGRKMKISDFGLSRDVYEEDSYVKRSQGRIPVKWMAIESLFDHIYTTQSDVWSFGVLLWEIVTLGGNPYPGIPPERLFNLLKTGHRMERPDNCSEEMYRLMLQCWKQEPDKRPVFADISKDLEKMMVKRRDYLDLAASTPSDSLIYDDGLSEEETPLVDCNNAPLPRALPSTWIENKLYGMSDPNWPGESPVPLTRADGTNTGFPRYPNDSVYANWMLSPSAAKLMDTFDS"}, "source": "patent US12661410B2", "about": "“Compounds for targeted degradation of RET” (C4 Therapeutics, Inc., priority 2020, dated 2026)", "key": {"RET (658-1114)": {"molecular_target": "RET (658-1114) (Homo sapiens, UniProt P07949)", "experiment": "HiBiT-Degradation, RET wild-type degradation assay (Nano-Glo HiBiT Lytic), 293T.144 cells", "details": "for 293T.144 RET (658-1114) 6.0 hours (Emax): % remaining protein; for DC50: read-out: 293T.144 RET (658-1114) 6.0 hours (DC50), half-maximal degradation concentration", "excerpt": "(§1) Dulbecco's modified Eagle medium (DMEM) no-phenol red media and fetal bovine serum (FBS) were purchased from Gibco (Grand Island, NY, USA). Cell lines ectopically expressing wild-type or G810R RET kinase domain fused with a HiBiT tag were generated in-house (293T. 144 and 293T. 165, respectively). Cell culture flasks and 384-well microplates were acquired from VWR (Radnor, PA, USA). The Nano-Glo® HiBiT Lytic Assay System was purchased from Promega (Madison, WI, USA).\n(§2) RET wild-type (WT) and G810R degradation were assessed using the Nano-Glo® HiBiT Lytic assay (Promega, Medison, WI, USA). To determine the effect of degraders on protein levels, cells were plated in 384-well plates and treated with compounds of interest in duplicates for 6 hours using an 11-point half-log dilution series, with the highest dose set at 10 μM. Cell lysis and addition of the Nano-Glo® HiBiT Lytic Assay reagents was then performed. Luminescence signal was measured using an EnVision™ Multimode plate reader (Perkin Elmer, Santa Clara, CA, USA). The half-maximal degradation concentration (DC50) and % remaining protein (Emax) was then derived from the dose-response curves."}, "RET(KD: 658-1114 G810R)": {"molecular_target": "RET(KD: 658-1114 G810R) (Homo sapiens, UniProt P07949, G810R)", "experiment": "HiBiT-Degradation, RET G810R degradation assay (Nano-Glo HiBiT Lytic), 293T.165 cells", "details": "for 293T.165 RET(KD: 658-1114 G810R) 6.0 hours (Emax): % remaining protein; for 293T.165 RET(KD: 658-1114 G810R) 6.0 hours (DC50) [nM]: half-maximal degradation concentration", "excerpt": "as §1, §2"}}, "note": "The match of structure and compound is tentative.", "data": [{"compound": "CCC1(C(=O)NC(C)C)CCN(c2ccc(-c3nc(-c4cnn(C5CCN(C(=O)CN6CCC(c7ccc8c(c7)CCN8C7CCC(=O)NC7=O)CC6)CC5)c4)cn4ncc(C#N)c34)cn2)CC1", "note": "(stereo not drawn)", "values": [{"measurement": "293T.144 RET (658-1114) 6.0 hours (IP) [nM]", "setting": "RET (658-1114)", "value": "++++ (<50 nM = ++++)"}, {"measurement": "293T.144 RET (658-1114) 6.0 hours (Emax)", "setting": "RET (658-1114)", "value": "++++ (<30% = ++++)"}, {"measurement": "DC50", "setting": "RET (658-1114)", "value": "< 50", "unit": "nM"}, {"measurement": "293T.165 RET(KD: 658-1114 G810R) 6.0 hours (IP) [nM]", "setting": "RET(KD: 658-1114 G810R)", "value": "++++ (<50 nM = ++++)"}, {"measurement": "293T.165 RET(KD: 658-1114 G810R) 6.0 hours (Emax)", "setting": "RET(KD: 658-1114 G810R)", "value": "+++ (<50% = +++)"}, {"measurement": "293T.165 RET(KD: 658-1114 G810R) 6.0 hours (DC50) [nM]", "setting": "RET(KD: 658-1114 G810R)", "value": "+++ (<100 nM = +++)"}]}, {"compound": "CCC1(C(=O)NC2CCOCC2)CCN(c2ccc(-c3nc(-c4cnn(C5CCN(C(=O)CN6CCC(c7ccc(NC8CCC(=O)NC8=O)cc7F)CC6)CC5)c4)cn4ncc(C#N)c34)cn2)CC1", "note": "(stereo not drawn)", "values": [{"measurement": "293T.144 RET (658-1114) 6.0 hours (IP) [nM]", "setting": "RET (658-1114)", "value": "++++ (<50 nM = ++++)"}, {"measurement": "293T.144 RET (658-1114) 6.0 hours (Emax)", "setting": "RET (658-1114)", "value": "++++ (<30% = ++++)"}, {"measurement": "DC50", "setting": "RET (658-1114)", "value": "< 50", "unit": "nM"}, {"measurement": "293T.165 RET(KD: 658-1114 G810R) 6.0 hours (IP) [nM]", "setting": "RET(KD: 658-1114 G810R)", "value": "++++ (<50 nM = ++++)"}, {"measurement": "293T.165 RET(KD: 658-1114 G810R) 6.0 hours (Emax)", "setting": "RET(KD: 658-1114 G810R)", "value": "++++ (<30% = ++++)"}, {"measurement": "293T.165 RET(KD: 658-1114 G810R) 6.0 hours (DC50) [nM]", "setting": "RET(KD: 658-1114 G810R)", "value": "++++ (<50 nM = ++++)"}]}]}
